In US20200108069A1, “Treatment of Fibrotic Conditions” (ANGLIA RUSKIN UNIVERSITY HIGHER EDUCATION CORPORATION, priority 2018, published 2020) one finds IC50 data, which are given here for one compound.

For orientation: IC50 means the point on the concentration scale where inhibition reaches its midpoint.

For test [1], the system named is fibroblasts isolated from human tunica albuginea (TA); TGF-β1-induced myofibroblast transformation. The test is described as follows: In Cell ELISA (ICE) phenotypic screening assay of TGF-β1-induced myofibroblast transformation (α-SMA/DNA staining). The format is cell-based. Particulars: Fibroblast, co-incubation with 10 ng/ml TGF-β1 for 72 hours, α-SMA/DNA staining ratio, read-out: IC50, inhibition of TGF-β1-induced myofibroblasts transformation. The source says: Tunica albuginea tissue samples were collected from patients undergoing surgery at University College London Hospital (UCLH), London, UK for penile cancer or PD. All patients gave fully informed written consent to the study. The study was approved by independent research ethics committees (NRES Committee East of England 12/EE/0170 and NRES Committee North of Scotland 15/NS/0051). PD plaque tissue was obtained from patients with chronic PD undergoing a Lue procedure (plaque incision and grafting). Plaque tissue would have otherwise been discarded. Non-plaque TA was obtained from PD patients undergoing a Nesbit procedure whereby non-fibrotic TA tissue was excised from the opposite side of the plaque. TA tissue samples from patients with penile cancer were taken from the proximal side away from the tumour, with the tumour showing negative margins on histological examination.
Tissue samples were carefully dissected to ensure that all cavernosal tissue was removed from the tunica albuginea (TA). To establish fibroblast cultures, TA fragments were seeded in 6-well tissue culture plates (Nunc, Fisher Scientific, UK) as described previously16. The tissue pieces were incubated in DMEM-F12 (GIBCO, Invitrogen, UK) containing 10% FCS (Fisher Scientific, UK) and 1% penicillin-streptomycin (GIBCO, Invitrogen, UK) at 37° C., 5% CO2 for 5-7 days. […]

Test [2] concerns TGF-β1-induced myofibroblast ECM protein production, cells derived from TA tissue. The test is described as follows: ECM production assay. The format is cell-based. The following applies: Homo sapiens, 168 h; 10 ng/ml TGF-β1 for 7 days; read-out: IC50, TGF-β1-induced ECM protein production: collagen III. The protocol:
Cells were seeded onto 96 well optical flat bottom black microplates (Nunc, Fisher Scientific, UK) at 5×10^3 cells per well. After overnight attachment, they were stimulated with or without 10 ng/ml TGF-β1 and/or compounds for 7 days. DRAQS in PBS (1:1,000) was added and cells were incubated for 5 min at 37° C., 5% CO2 before scanning the plate to obtain nuclear staining. […] Afterwards ECM was stained either with Coomassie Blue (total ECM) overnight at 4° C. or with primary antibodies (collagen I, abcam; collagen III, Millipore; collagen V, abcam: fibronectin, Millipore) at 1:1000 for 1 h on a shaker, followed by incubation with secondary antibody and scanning the plate using an infrared imaging system (Odyssey CLx imager, LI-COR, UK) at both the 700 nm and 800 nm wavelengths. Results were normalized to the cell number before lysis.

As for `CC/C(=C(\c1ccccc1)c1ccc(OCCN(C)C)cc1)c1ccccc1` [tamoxifen], the values for the 50% inhibitory concentration (IC50) in test [1] and in test [2] were 11.9 µM and 5.3 µM, respectively.
